Substitutions are numbered along the chain they refer to. These are yes or no findings as the source states them, for the method shown. Some results given as binding are weak or reduced against the parent protein; the word gives no strength. Values belong to the binder of their own block, whether it stands above or below them.
Target: T1, human TREM2 (Triggering Receptor Expressed on Myeloid cells-2), wild-type (human) (UniProt Q9NZC2)
T1 sequence (looked up): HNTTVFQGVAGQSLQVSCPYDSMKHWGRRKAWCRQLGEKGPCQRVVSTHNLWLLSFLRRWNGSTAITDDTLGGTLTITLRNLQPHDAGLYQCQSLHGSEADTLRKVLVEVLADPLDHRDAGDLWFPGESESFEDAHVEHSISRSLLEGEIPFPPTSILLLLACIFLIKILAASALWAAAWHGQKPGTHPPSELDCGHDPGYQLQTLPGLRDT
Experiment: hybridoma supernatant screen: peptide ELISA and detection of TREM2 on the cell surface

binding: binds
B1: antibody clone 13F4 (antibody, V domains shown)
VH: EVHLVESGGGLVQPGRSLKLSCAASRFTFSNYGMAWVRQAPTKGLEWVASISNSGGRTFYRDSVKARFTISRDSAESTLYLQMDSLRSEDTATYYCTTIGGGSTFDYWGQGVMVTVSS
VL: DVVMTQTPPSLSVAIGQSVSISCKSSQSLVYSDGKTYLHWLLQSPGRSPKRLIYQVSNLGSGVPDRFSGTGSQKDFTLKISRVEAEDLGVYYCAQTTHFPPTFGSGTKLEIK

binding: binds
B2: antibody clone 14B3 (antibody, V domains shown)
VH: B1 VH with H3Q, R26G, T28S, S54N, A66G, S74N, E76K, D84H
VL: B1 VL with I21M, R47G

Source: patent US20240327512A1 (DUKE UNIVERSITY, published 2024)
